Paper PMC12916490 (Molecular Psychiatry, 2025)

Assay: Recovery of the microdialysis probes (probe immersed in DOM/DOAM mixture)
Conditions: probe in 1 µg/mL mixture in artificial cerebrospinal fluid, 1 µL/min, 15 min

| SMILES | Mean (SD) recovery of the microdialysis probes |
| --- | --- |
| CCCCCc1cc(OC)c(CC(C)N)cc1OC (centres unmarked) [DOAM, 4-amyl-2,5-dimethoxyamphetamine] | 3.9% |
| COc1cc(CC(C)N)c(OC)cc1C (centres unmarked) [DOM, 4-methyl-2,5-dimethoxyamphetamine] | 14.1% |
